The values that follow come from paper PMC9264554.

This series has as its system GST-SRMT.3. Nature of the series: EMSA. The note with it: LightShift Chemiluminescent EMSA Kit (Pierce), per manufacturer, pH and temperature not stated, recombinant protein, protein details: GST (N-terminal, pGEX4T-1), label: biotin.

For at least one entry, the source does not settle the construct or the ends of the probe. A negative result means that nothing was seen under these conditions.

Consider “CAAAATGAAACACGACCAAACTGTGGACATTAG (double strand) [ME4]”, for which, for the setting “cold probe competes, strongest of the MEs”, the binding result is reported as “binds”.

As for “ACTTGCACATGGATAAGGTCGGCTATTTGATG (double strand) [ME5]”, the binding result (cold probe competes) is listed as “binds”.

For “CAAAATGAAACACAAAAAAAATGTGGACATTAG (double strand) [mutant ME4]”, the binding result is “no binding”.

For the sequence “TCTCGAAGTTTAAAAAAAACTTCATCAATC (double strand) [mutant ME2]”, the binding result is recorded as “no binding”.

Take “ACTTGCACATGGAAAAAAAAGGCTATTTGATG (double strand) [mutant ME5]”: the binding result was “no binding”.

As to “TCTCGAAGTTTGACCTTCCCTTCATCAATC (double strand) [ME2]”, the binding result (cold probe competes) was “binds”.
